# Measurements published in the supplement of paper PMC10849652.
# Sequences of proteins named here, by UniProt entry; tags and fusion partners are left off. A change or cut given only in a name is not applied to a line headed by its entry.
# UniProt P06732: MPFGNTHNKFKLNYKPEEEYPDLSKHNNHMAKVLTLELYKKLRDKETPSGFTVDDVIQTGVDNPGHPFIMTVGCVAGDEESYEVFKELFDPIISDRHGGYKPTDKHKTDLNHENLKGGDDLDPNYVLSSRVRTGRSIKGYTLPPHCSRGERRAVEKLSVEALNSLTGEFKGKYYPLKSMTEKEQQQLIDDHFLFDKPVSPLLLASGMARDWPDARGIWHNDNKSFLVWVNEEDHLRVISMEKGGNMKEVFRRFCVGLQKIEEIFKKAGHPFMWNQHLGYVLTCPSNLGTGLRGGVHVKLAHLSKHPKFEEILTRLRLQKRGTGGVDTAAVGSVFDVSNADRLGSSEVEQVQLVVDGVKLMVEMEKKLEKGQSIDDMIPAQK
# UniProt Q8WUX9: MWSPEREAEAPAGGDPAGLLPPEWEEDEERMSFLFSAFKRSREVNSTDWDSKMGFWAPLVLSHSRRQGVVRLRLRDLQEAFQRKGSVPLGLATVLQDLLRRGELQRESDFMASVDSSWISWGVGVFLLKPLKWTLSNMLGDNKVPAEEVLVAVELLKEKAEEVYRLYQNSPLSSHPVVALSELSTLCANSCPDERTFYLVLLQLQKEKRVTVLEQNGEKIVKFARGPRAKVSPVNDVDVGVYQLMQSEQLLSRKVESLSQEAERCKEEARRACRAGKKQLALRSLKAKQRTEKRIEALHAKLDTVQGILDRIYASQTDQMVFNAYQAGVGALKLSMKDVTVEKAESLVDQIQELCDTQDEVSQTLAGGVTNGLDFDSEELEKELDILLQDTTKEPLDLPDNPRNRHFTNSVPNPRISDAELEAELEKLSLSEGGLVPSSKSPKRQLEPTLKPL
# UniProt O43633: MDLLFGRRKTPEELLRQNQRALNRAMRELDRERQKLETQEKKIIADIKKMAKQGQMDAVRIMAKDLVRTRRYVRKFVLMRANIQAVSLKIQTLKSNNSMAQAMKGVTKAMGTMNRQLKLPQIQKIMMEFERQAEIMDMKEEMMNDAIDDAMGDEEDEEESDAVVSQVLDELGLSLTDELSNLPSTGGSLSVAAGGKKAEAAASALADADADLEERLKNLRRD
# UniProt P51795: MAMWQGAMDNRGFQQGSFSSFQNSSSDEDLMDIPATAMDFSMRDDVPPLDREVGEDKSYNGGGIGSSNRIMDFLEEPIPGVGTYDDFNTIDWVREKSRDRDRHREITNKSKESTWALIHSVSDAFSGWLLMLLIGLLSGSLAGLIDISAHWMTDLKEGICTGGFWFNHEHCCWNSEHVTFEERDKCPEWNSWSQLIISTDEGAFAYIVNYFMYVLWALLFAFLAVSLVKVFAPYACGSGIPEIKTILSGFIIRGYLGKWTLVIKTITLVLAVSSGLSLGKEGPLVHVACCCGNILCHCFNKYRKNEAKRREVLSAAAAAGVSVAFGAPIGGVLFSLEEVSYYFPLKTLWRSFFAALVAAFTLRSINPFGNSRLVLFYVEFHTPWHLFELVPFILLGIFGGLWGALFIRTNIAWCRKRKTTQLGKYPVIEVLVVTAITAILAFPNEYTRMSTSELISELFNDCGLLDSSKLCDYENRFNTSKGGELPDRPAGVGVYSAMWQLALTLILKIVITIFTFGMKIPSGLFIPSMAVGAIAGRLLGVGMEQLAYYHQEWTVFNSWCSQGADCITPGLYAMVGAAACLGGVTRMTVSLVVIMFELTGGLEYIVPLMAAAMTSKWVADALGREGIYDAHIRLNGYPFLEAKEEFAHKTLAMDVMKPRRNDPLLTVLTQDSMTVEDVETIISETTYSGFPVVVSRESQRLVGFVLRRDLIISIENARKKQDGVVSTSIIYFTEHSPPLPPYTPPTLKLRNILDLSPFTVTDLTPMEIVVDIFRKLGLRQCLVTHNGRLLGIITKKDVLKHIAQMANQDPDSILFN
# UniProt Q8N4Q1: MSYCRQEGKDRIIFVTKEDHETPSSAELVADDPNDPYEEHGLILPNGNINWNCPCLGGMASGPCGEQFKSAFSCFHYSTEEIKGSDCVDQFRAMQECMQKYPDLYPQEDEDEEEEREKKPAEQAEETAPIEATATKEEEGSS
# UniProt Q96MX0: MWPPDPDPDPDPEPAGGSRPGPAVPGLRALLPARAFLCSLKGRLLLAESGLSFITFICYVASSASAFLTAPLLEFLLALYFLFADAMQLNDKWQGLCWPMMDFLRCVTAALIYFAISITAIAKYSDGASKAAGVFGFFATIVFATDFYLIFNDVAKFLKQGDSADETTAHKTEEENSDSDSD
# UniProt Q9NX76: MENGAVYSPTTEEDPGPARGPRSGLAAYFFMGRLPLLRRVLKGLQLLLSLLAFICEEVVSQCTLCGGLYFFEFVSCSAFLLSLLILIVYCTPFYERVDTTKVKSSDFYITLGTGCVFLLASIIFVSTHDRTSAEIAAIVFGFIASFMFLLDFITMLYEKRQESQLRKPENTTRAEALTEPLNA
# UniProt Q9NRP2: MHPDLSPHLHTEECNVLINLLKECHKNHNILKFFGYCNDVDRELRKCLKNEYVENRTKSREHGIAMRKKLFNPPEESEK
# UniProt Q9HCK8: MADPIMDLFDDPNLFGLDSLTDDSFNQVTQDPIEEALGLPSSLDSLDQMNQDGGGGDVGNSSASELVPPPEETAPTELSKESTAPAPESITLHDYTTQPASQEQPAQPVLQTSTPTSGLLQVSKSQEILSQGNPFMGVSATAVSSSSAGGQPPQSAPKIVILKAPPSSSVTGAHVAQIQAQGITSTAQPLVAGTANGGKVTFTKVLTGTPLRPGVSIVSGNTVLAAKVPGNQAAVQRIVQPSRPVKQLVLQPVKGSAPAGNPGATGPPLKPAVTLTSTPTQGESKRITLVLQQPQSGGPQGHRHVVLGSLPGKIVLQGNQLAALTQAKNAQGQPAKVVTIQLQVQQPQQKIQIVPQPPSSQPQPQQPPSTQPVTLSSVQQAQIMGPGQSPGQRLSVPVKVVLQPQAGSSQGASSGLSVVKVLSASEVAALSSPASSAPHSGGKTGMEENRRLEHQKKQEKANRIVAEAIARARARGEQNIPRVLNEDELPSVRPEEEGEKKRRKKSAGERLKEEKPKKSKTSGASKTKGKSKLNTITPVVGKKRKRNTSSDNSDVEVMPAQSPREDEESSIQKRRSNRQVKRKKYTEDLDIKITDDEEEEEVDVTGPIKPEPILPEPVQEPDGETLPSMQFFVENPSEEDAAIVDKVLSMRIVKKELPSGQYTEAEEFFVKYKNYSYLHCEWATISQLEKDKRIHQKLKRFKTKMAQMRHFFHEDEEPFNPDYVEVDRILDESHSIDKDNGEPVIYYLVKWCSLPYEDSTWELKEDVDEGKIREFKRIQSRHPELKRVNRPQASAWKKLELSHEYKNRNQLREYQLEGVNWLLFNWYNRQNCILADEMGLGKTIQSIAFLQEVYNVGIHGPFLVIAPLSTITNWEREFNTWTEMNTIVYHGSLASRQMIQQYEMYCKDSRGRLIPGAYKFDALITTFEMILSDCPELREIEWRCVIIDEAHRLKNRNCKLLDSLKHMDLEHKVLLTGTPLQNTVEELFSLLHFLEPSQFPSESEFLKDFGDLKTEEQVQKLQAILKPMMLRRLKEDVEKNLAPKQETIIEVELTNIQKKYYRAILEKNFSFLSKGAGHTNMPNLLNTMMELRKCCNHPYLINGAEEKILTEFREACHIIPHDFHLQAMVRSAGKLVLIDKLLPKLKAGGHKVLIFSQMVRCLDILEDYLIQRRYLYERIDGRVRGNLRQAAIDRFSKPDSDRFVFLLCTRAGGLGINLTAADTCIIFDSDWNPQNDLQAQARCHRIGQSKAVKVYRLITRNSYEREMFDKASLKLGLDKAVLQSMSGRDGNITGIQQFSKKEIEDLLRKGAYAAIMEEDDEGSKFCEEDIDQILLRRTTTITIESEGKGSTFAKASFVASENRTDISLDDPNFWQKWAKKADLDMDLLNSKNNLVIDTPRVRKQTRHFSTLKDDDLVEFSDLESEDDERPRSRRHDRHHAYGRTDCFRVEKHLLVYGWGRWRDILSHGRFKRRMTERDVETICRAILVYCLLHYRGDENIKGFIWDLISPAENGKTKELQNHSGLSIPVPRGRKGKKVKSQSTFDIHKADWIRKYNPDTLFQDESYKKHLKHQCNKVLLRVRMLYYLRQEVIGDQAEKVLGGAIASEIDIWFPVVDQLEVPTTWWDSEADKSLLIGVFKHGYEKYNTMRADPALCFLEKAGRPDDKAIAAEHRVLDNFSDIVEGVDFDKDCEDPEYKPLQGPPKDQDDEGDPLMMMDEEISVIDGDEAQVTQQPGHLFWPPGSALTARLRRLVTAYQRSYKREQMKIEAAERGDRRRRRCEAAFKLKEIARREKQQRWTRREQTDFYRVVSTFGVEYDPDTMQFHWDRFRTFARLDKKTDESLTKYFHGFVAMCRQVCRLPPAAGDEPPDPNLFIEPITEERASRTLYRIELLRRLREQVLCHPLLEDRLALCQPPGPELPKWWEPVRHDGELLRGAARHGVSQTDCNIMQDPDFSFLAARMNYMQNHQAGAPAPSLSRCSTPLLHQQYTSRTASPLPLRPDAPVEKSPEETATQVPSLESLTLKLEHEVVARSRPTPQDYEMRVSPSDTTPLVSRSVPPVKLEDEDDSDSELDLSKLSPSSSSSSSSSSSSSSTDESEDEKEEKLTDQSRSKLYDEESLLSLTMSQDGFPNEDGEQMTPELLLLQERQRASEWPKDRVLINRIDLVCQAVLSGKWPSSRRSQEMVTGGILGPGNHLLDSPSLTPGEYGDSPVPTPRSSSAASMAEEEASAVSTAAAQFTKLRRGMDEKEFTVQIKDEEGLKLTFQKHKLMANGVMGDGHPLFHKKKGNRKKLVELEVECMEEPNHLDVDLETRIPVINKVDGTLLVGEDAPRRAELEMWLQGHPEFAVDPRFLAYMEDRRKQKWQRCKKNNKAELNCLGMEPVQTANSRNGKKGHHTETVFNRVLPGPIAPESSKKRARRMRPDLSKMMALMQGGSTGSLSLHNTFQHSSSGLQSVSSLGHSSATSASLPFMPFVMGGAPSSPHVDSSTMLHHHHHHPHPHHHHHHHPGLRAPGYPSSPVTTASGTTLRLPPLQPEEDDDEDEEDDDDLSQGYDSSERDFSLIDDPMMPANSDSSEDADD
# UniProt Q9HD42: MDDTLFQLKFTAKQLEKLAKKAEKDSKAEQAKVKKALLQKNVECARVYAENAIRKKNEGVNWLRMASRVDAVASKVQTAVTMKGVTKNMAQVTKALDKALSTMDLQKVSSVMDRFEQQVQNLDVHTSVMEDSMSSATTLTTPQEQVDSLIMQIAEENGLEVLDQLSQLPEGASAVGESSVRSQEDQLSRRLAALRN
# UniProt Q96CF2: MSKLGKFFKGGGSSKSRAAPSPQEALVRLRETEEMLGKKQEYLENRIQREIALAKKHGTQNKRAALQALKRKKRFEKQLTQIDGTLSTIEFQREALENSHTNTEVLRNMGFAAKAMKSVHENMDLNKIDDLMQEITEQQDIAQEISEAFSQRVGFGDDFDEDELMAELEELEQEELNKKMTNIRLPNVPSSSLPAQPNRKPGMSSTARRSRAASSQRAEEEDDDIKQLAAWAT
# UniProt Q99828: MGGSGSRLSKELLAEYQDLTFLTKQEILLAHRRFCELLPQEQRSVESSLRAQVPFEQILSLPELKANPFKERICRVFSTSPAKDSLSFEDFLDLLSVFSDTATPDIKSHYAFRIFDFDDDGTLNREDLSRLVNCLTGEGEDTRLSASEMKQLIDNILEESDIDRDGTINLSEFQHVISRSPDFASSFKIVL
# UniProt Q9Y6H1: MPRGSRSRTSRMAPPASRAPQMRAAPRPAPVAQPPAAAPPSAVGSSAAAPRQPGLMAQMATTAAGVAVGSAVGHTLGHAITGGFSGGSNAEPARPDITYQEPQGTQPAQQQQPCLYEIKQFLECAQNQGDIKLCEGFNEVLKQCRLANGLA
# UniProt P61024, whole entry, looked up: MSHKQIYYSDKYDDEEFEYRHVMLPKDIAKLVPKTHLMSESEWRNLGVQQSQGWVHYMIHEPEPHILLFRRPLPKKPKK
# UniProt Q8WWK9: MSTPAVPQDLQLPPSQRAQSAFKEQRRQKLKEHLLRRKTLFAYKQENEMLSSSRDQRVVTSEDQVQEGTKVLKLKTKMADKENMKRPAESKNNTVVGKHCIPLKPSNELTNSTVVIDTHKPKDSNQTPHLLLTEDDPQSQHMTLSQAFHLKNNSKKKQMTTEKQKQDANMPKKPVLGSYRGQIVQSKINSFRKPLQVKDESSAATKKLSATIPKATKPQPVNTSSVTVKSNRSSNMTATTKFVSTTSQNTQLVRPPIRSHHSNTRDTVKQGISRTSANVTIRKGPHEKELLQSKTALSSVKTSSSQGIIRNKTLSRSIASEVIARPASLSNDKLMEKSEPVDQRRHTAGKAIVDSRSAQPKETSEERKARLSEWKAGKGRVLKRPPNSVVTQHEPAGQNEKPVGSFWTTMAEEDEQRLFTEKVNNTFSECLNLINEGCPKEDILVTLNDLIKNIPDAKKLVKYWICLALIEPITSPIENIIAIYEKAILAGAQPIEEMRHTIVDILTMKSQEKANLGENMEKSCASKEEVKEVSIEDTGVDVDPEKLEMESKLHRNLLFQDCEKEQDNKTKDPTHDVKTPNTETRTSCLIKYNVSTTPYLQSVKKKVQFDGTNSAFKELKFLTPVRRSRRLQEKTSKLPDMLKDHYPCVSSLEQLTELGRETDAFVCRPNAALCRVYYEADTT
# The list shows a part of the results.
# How the values were obtained:
# Assay in all cases: log2 fold change, soluble protein after heating vs DMSO (PISA); higher = thermal stabilisation; K562 lysate, 10 uM; active = over 0.2 and 3.5 SD of the protein, either way, in both replicates (recomputed)
# [1] = compound: CS(=O)(=O)CCNCc1ccc(-c2ccc3ncnc(Nc4ccc(OCc5cccc(F)c5)c(Cl)c4)c3c2)o1 [lapatinib]
# Procedure, shortened: (§1)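 K562 pellets were dounce-homogenised in PBS pH 7.4 with 1 mM MgCl2, and the crude extract at 1 mg/mL protein was treated with 10 μM compound for 30 min. Aliquots were heated for 3 min across 48°C-58°C, pooled, and brought to 0.5% NP-40 at 4°C; soluble protein was the supernatant after 21,000xg for 90 min. Soluble protein was quantified by TMTpro 16plex LC-MS/MS with channel sums equalised, and reported as log2 fold change in thermal stability against DMSO controls, with values from duplicates.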
# [2] = compound: CS(=O)(=O)N1CCN(Cc2cc3nc(-c4cccc5[nH]ncc45)nc(N4CCOCC4)c3s2)CC1 [pictilisib]
# Procedure, shortened: as §1
# [3] = compound: C[C@@H](Oc1cc(-c2cnn(C3CCNCC3)c2)cnc1N)c1c(Cl)ccc(F)c1Cl [crizotinib]
# Procedure, shortened: as §1
# [4] = compound: C[C@H](C1=CC=C(C=C1)C(=O)NC2=C3C=CNC3=NC=C2)N
# Procedure, shortened: as §1
# [5] = compound: C[C@H](Nc1ncnc2nc[nH]c12)c1cc2cccc(Cl)c2c(=O)n1-c1ccccc1 [duvelisib]
# Procedure, shortened: as §1
# [6] = compound: Cc1cc(Nc2cc(CN3CCOCC3)c3nc(C)c(Cc4ccc(Cl)cc4F)n3n2)n[nH]1 [gandotinib]
# Procedure, shortened: as §1
# [7] = compound: Cc1cc(Nc2cc(N3CCN(C)CC3)nc(Sc3ccc(NC(=O)C4CC4)cc3)n2)n[nH]1 [tozasertib]
# Procedure, shortened: as §1
# [8] = compound: Cc1ccc(-n2nc(C(C)(C)C)cc2NC(=O)Nc2ccc(OCCN3CCOCC3)c3ccccc23)cc1 [doramapimod]
# Procedure, shortened: as §1
# [9] = compound: Cc1ccc(NC(=O)c2ccc(CN3CC[C@H](N(C)C)C3)c(C(F)(F)F)c2)cc1Nc1nccc(-c2cncnc2)n1 [bafetinib]
# Procedure, shortened: as §1
# [10] = compound: Cc1cccc(CC(=O)N2CCc3c2ccc(-c2cn(C)c4ncnc(N)c24)c3F)n1
# Procedure, shortened: as §1
Target,log2 fold change [1],log2 fold change [2],log2 fold change [3],log2 fold change [4],log2 fold change [5],log2 fold change [6],log2 fold change [7],log2 fold change [8],log2 fold change [9],log2 fold change [10]
CHKB (UniProt Q9Y259),inactive: 0.022,inactive: -0.002,inactive: -0.056,inactive: -0.076,inactive: -0.015,inactive: 0.043,inactive: -0.041,inactive: 0.019,inactive: 0.065,inactive: 0.049
CHM (UniProt P24386),inactive: -0.034,inactive: -0.005,inactive: 0.022,inactive: 0.004,inactive: 0.053,inactive: 0.002,inactive: -0.076,inactive: -0.012,inactive: 0.013,inactive: 0.095
CKM (UniProt P06732),inactive: -0.041,inactive: -0.035,inactive: -0.13,active: -0.431,inactive: 0.087,inactive: 0.096,inactive: -0.078,inactive: -0.019,inactive: -0.023,inactive: 0.113
CHMP7 (UniProt Q8WUX9),inactive: 0.024,inactive: -0.104,inactive: 0.034,inactive: -0.064,inactive: -0.049,inactive: 0.049,inactive: -0.039,inactive: 0.029,inactive: -0.174,inactive: -0.003
CHD1 (UniProt O14646),inactive: -0.008,inactive: -0.068,inactive: -0.108,inactive: -0.023,inactive: 0.014,inactive: -0.063,inactive: 0.035,inactive: 0.044,inactive: -0.005,inactive: 0.017
CHMP2A (UniProt O43633),inactive: 0.013,inactive: 0.033,inactive: -0.01,inactive: -0.059,inactive: -0.003,inactive: 0.092,inactive: 0.002,inactive: 0.001,inactive: 0.042,inactive: 0.006
CIAO3 (UniProt Q9H6Q4),inactive: 0.035,inactive: 0.002,inactive: -0.033,inactive: -0.08,inactive: -0.016,inactive: 0.049,inactive: 0.007,inactive: -0.01,inactive: 0.049,inactive: 0.001
CLCN5 isoform 2 (UniProt P51795),inactive: 0.057,,,,,,,,,
CKMT2 (UniProt D6RHV3),inactive: -0.21,,,,,,,,,
CHCHD4 isoform 2 (UniProt Q8N4Q1),inactive: 0.045,inactive: 0.092,inactive: -0.085,inactive: -0.316,inactive: 0.022,inactive: 0.217,inactive: -0.041,inactive: 0.047,inactive: -0.029,inactive: 0.198
CMTM3 (UniProt Q96MX0),inactive: -0.027,inactive: 0.029,inactive: -0.069,inactive: 0.023,inactive: -0.052,inactive: 0.016,inactive: 0.042,inactive: 0.025,inactive: -0.057,inactive: -0.059
CMTM6 (UniProt Q9NX76),inactive: 0.02,inactive: 0.009,inactive: 0.005,inactive: 0.073,inactive: -0.016,inactive: -0.131,inactive: 0.086,inactive: -0.017,inactive: -0.114,inactive: -0.035
CHD1L (UniProt Q86WJ1),inactive: -0.037,inactive: -0.045,inactive: -0.115,inactive: -0.011,inactive: 0.013,inactive: -0.062,inactive: 0.052,inactive: 0.128,inactive: -0.055,inactive: 0.038
CMC2 (UniProt Q9NRP2),inactive: -0.001,inactive: -0.044,inactive: 0.046,inactive: 0.041,inactive: 0.014,inactive: -0.094,inactive: 0.012,inactive: -0.019,inactive: -0.033,inactive: 0.012
CHD8 (UniProt Q9HCK8),inactive: 0.091,inactive: 0.061,inactive: 0.006,inactive: -0.045,inactive: -0.022,inactive: -0.035,inactive: -0.021,inactive: 0.039,inactive: -0.087,inactive: 0.095
CHMP1A (UniProt Q9HD42),inactive: 0.027,inactive: 0.002,inactive: 0.041,inactive: 0.007,inactive: -0.027,inactive: 0.027,inactive: 0.013,inactive: 0.006,inactive: 0.01,inactive: -0.05
CMTR2 (UniProt Q8IYT2),inactive: -0.235,,,,,,,,,
CMPK2 (UniProt Q5EBM0),inactive: 0.065,inactive: 0,inactive: 0.007,inactive: -0.074,inactive: 0.043,inactive: 0.008,inactive: 0.018,inactive: -0.01,inactive: -0.061,inactive: 0.056
CHMP4C (UniProt Q96CF2),inactive: 0,inactive: 0.056,inactive: -0.06,inactive: -0.194,inactive: 0.002,inactive: 0.086,inactive: 0.043,inactive: 0.043,inactive: -0.024,inactive: 0.083
CHCHD3 (UniProt Q9NX63),inactive: -0.014,inactive: -0.007,inactive: 0.004,inactive: 0.013,inactive: -0.032,inactive: 0.002,inactive: 0.025,inactive: -0.001,inactive: -0.001,inactive: -0.025
CKMT2 (UniProt P17540),inactive: -0.025,inactive: -0.018,inactive: -0.077,inactive: -0.096,inactive: 0.01,inactive: -0.006,inactive: -0.021,inactive: -0.036,inactive: -0.025,inactive: 0.021
CHID1 (UniProt Q9BWS9),inactive: -0.016,inactive: -0.016,inactive: 0.034,inactive: 0.091,inactive: -0.044,inactive: -0.037,inactive: 0.012,inactive: -0.021,inactive: -0.064,inactive: -0.055
CIB1 (UniProt Q99828),inactive: -0.073,inactive: 0.047,inactive: -0.046,inactive: 0.023,inactive: -0.006,inactive: -0.008,inactive: 0.06,inactive: 0.051,inactive: 0.115,inactive: 0.059
CHCHD2 (UniProt Q9Y6H1),inactive: 0.035,inactive: 0,inactive: 0.119,inactive: 0.044,inactive: -0.008,inactive: 0.021,inactive: 0.102,inactive: -0.021,inactive: 0.288,inactive: -0.138
CKS1B (UniProt P61024),inactive: 0.039,inactive: 0.002,inactive: 0.094,active: 0.302,inactive: -0.045,inactive: -0.183,inactive: 0.047,inactive: 0.023,inactive: 0.068,active: -0.324
CHD3 isoform 3 (UniProt Q12873),inactive: -0.022,inactive: -0.02,inactive: 0.009,inactive: 0.014,inactive: -0.022,inactive: -0.013,inactive: -0.002,inactive: 0.028,inactive: -0.047,inactive: 0.033
CKAP5 (UniProt Q14008),inactive: 0.001,inactive: 0.013,inactive: -0.017,inactive: 0.004,inactive: 0.001,inactive: -0.053,inactive: 0.01,inactive: 0.011,inactive: 0.005,inactive: 0.015
CHD2 (UniProt O14647),inactive: 0.091,inactive: 0.063,inactive: -0.021,inactive: -0.15,inactive: 0.036,inactive: 0.179,inactive: 0.098,inactive: 0.136,inactive: 0.034,inactive: 0.249
CKAP2 (UniProt Q8WWK9),inactive: -0.004,inactive: -0.02,inactive: -0.027,inactive: 0.064,inactive: 0.016,inactive: 0.016,inactive: 0.034,inactive: -0.001,inactive: 0.019,inactive: -0.009
CMAS (UniProt Q8NFW8),inactive: -0.015,inactive: -0.006,inactive: -0.005,inactive: -0.069,inactive: -0.025,inactive: 0.018,inactive: -0.035,inactive: -0.009,inactive: -0.047,inactive: 0.022

# Single entries from the list.
# Value for CMPK2 (UniProt Q5EBM0) under log2 fold change [6]: inactive: 0.008
# Value for CKS1B (UniProt P61024) under log2 fold change [5]: inactive: -0.045
